Test results: PubChem BioAssay AID2685 (National Center for Advancing Translational Sciences (NCATS), 2010)
This is one part of the list. Shown are side measurements of this screen, not its main read-out; they come without a call. Most of these compounds were active or inconclusive in the main read-out, so they are no random draw. Words in brackets tell the shape of the fitted curve; partial curves, single points and poor fits give uncertain potencies.

Assay: qHTS Assay for Lipid Storage Modulators in Drosophila S3 Cells;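 on cell number change: cells counted by Cell Tracker Red CMTPX staining in the red channel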
Details: BODIPY lipid droplet fluorescence, 18-24 h; for cell number change: measured here: cell count max response, cells fed with added oleic acid
Summary of the method: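 Laser-scanning cytometry quantifies lipid droplet accumulation (500–530 nm total intensity; droplet/cell object ratio) in oleic acid-fed (400 uM added) Drosophila S3 cells treated with a concentration series. 20 uM Triacsin C defined 100% inhibition.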

[1] = measured here: cell number channel AC50, cells fed with added oleic acid
[2] = measured here: lipid fluorescence (Fed channel) AC50, cells fed with added oleic acid

CN(C)C(C(=O)Nc1cc(Cl)cc(Cl)c1)c1ccccc1 (stereo not drawn)
cell number change: 22.7% | AC50 [1]: 0.58 µM [falling, single point] | AC50 [2]: 0.58 µM [falling, single point]

Cc1coc2cc3oc(=O)c4c(c3cc12)CCC4
cell number change: 10.2% | AC50 [2]: 29.1 µM [rising, single point]

Cc1ccc2[nH]cc(C(=O)CCl)c2c1
cell number change: -34.2% | AC50 [1]: 18.4 µM [falling, single point] | AC50 [2]: 13 µM [falling, partial curve]

CC(C)(C)c1csc(NC(=O)CSc2nc3ccccc3c(=O)[nH]2)n1
cell number change: -44.2% | AC50 [1]: 23.1 µM [falling, single point] | AC50 [2]: 29.1 µM [falling, single point]

Cc1c(Cl)sn(-c2ccc(Cl)cc2)c1=O
cell number change: -63.4% | AC50 [1]: 3.66 µM [falling, full curve] | AC50 [2]: 4.11 µM [falling, full curve]

CCCCN(CC)CCNS(=O)(=O)c1ccc2c(c1)oc(=O)n2C
cell number change: -25% | AC50 [2]: 29.1 µM [falling, single point]

CS(=O)(=O)c1ccccc1-c1nc(-c2ccc([N+](=O)[O-])cc2)no1
cell number change: 12.3%

O=c1[nH]c2cc3c(cc2cc1C(c1nnnn1CC1CCCO1)N1CCCCCC1)OCCO3 (stereo not drawn)
cell number change: 19.4% | AC50 [2]: 29.1 µM [rising, single point]

O=C(NCc1ccccn1)c1cc2ccccn2n1
cell number change: 12.6% | AC50 [2]: 0.461 µM [rising, full curve, poor fit]

COC(=O)c1ccc(CSc2nc3ccccc3c(=O)n2-c2ccccc2)o1
cell number change: 55.3% | AC50 [1]: 16.4 µM [rising, single point]

CC(Sc1nc2ncc(Cl)cc2[nH]1)C(=O)c1c(N)n(C)c(=O)n(C)c1=O (stereo not drawn)
cell number change: 33% | AC50 [1]: 0.366 µM [rising, full curve, poor fit]

COc1cccc(C2C=C(c3ccc(OC)cc3OC)Nc3nnnn32)c1 (stereo not drawn)
cell number change: -16.5% | AC50 [2]: 0.103 µM [rising, full curve, poor fit]

O=C(O)C1CCCCN1S(=O)(=O)c1ccc(Cl)s1 (stereo not drawn)
cell number change: -36.1% | AC50 [1]: 29.1 µM [falling, single point] | AC50 [2]: 8.2 µM [falling, partial curve, poor fit]

O=C1/C(=C\c2ccc(Br)o2)SC(=Nc2ccccc2)N1c1ccccc1
cell number change: -36.9% | AC50 [1]: 9.2 µM [falling, partial curve] | AC50 [2]: 29.1 µM [falling, single point]

Cc1ccc(OCCCSc2n[nH]c(N)n2)cc1
cell number change: 22.2% | AC50 [2]: 23.1 µM [rising, partial curve, poor fit]

COc1ccc(C(=O)N2CCCCCC2)cc1OC1CCN(C(C)=O)CC1
cell number change: -24.3% | AC50 [2]: 11.6 µM [falling, single point]

COc1ccc(NC(=O)/C=C/C(=O)O)c([N+](=O)[O-])c1
cell number change: 30.3% | AC50 [1]: 29.1 µM [rising, single point] | AC50 [2]: 4.61 µM [rising, partial curve, poor fit]

C/C(=N\Nc1ccc(C#N)cc1[N+](=O)[O-])c1ccc(C)o1
cell number change: 8% | AC50 [1]: 6.51 µM [falling, single point]

N#Cc1c(NC(=O)CSc2ccccn2)oc(-c2ccccc2)c1-c1ccccc1
cell number change: 44.1% | AC50 [1]: 6.51 µM [rising, full curve] | AC50 [2]: 8.2 µM [rising, partial curve]

Nc1ccc(-c2nc3c(ccc4ccccc43)[nH]2)cc1
cell number change: -47.2% | AC50 [1]: 20.6 µM [falling, single point] | AC50 [2]: 29.1 µM [falling, single point]

O=C(CCC(=O)c1ccccc1)NCc1ccccc1
AC50 [1]: 6.51 µM [falling, single point] | AC50 [2]: 6.51 µM [falling, single point]

CCOc1cc(N2CCOCC2)c(OCC)cc1NC(=O)CN1C(=O)NC2(CCCCCCC2)C1=O
cell number change: -43.1%

Cc1ccc(-n2nc3c(c2NC(=O)CCC2CCCCC2)CS(=O)C3)cc1 (stereo not drawn)
cell number change: 2.58% | AC50 [2]: 0.461 µM [rising, full curve]

COc1ccc(S(=O)(=O)c2c(O)c3ccc(C(=O)Nc4ccccc4F)cc3[nH]c2=O)cc1
cell number change: -21.6% | AC50 [2]: 3.66 µM [falling, single point]

COc1ccc(C2(C)ON(c3ccccc3C(F)(F)F)C2=O)cc1 (stereo not drawn)
cell number change: -82.7% | AC50 [1]: 18.4 µM [falling, single point]

Cn1c(COc2ccc3ccccc3c2)nnc1SCC(=O)OC1CCCCC1
cell number change: -24.6% | AC50 [2]: 0.651 µM [falling, full curve, poor fit]

CC(C)OCCCNC(=O)c1cc2c(s1)CS(=O)(=O)C2
cell number change: -71.4% | AC50 [1]: 3.66 µM [falling, partial curve, poor fit] | AC50 [2]: 23.1 µM [falling, partial curve, poor fit]

COc1ccccc1N1CCN(/N=C\c2ccccc2)CC1
cell number change: -5.47% | AC50 [2]: 20.6 µM [rising, single point]

CC(=C/c1ccco1)/C=N/N1CCN(c2ccccc2)CC1
cell number change: 4.84% | AC50 [2]: 29.1 µM [rising, single point]

N[C@@H](Cc1ccc(O)cc1)c1nnc([C@H](CCC(=O)O)NC(=O)C2CCNCC2)o1
cell number change: -0.841% | AC50 [2]: 0.651 µM [falling, single point]

O=C1CS(=O)CN1c1ccc(Oc2ccccc2)cc1 (stereo not drawn)
cell number change: -40.4% | AC50 [1]: 29.1 µM [falling, single point]

Cc1cc(NC(=O)CCC(=O)N(Cc2cccs2)C(C(=O)NC2CCCC2)c2ccncc2)no1 (stereo not drawn)
cell number change: -15.9% | AC50 [2]: 11.6 µM [rising, partial curve]

FC(F)(F)c1cccc(CNC2c3ccccc3-c3ccccc32)c1
AC50 [2]: 0.411 µM [rising, partial curve, poor fit]

CCOC(=O)N1CCC(NC(=O)CCc2c(C)nc3c(c(C)nn3C(C)(C)C)c2C)CC1
cell number change: -73.2% | AC50 [2]: 23.1 µM [falling, single point]

CCOc1ccccc1C(=O)Nc1cc(C)ccc1NC(=O)c1ccco1
cell number change: 4.91%

Cc1ccc([N+](=O)[O-])cc1S(=O)(=O)NCCc1cn2ccccc2n1
cell number change: 3.09% | AC50 [2]: 0.0082 µM [falling, full curve, poor fit]

CCOC(=O)N1CCc2c(sc3c2c(=O)n(Cc2ccccc2)c(=O)n3Cc2ccccc2F)C1
cell number change: -4.4%

COc1cccc(N2CCN(C(=O)c3cccc(N4C(=O)NC5CC4(C)Oc4c(OC)cccc45)c3)CC2)c1 (stereo not drawn)
cell number change: -9.44% | AC50 [2]: 6.51 µM [rising, partial curve, poor fit]

O=C(O)Cn1c(Cc2ccccc2)nc2ccccc21
cell number change: 15.8%

CCOC(=O)c1c(C)n(S(=O)(=O)c2ccc(C)cc2)c2ccc(O)c(C(=O)O)c12
cell number change: 13.7% | AC50 [2]: 18.4 µM [rising, partial curve]

O=C(COC(=O)c1ccc(O)cc1)Nc1ncc(Cl)cc1Cl
cell number change: 53.9%

O=C1CN(C(=O)/C=C/c2ccccc2F)c2ccccc2N1
cell number change: 101%

C[C@H](NC(=O)c1ccccc1Cl)C(=O)NCc1cccs1
cell number change: 40.2% | AC50 [1]: 3.26 µM [rising, partial curve, poor fit]

CCOc1ccc(CCNC(=O)CN2C(=O)COc3ccc(S(=O)(=O)N4CCOCC4)cc32)cc1
cell number change: -2.47% | AC50 [2]: 0.206 µM [rising, full curve, poor fit]

CCOc1ccccc1C1CC(c2ccc(F)cc2)Nc2nc(N)nn21 (stereo not drawn)
cell number change: -16% | AC50 [1]: 3.26 µM [falling, partial curve] | AC50 [2]: 0.103 µM [rising, single point]

O=C(Nc1cccnc1)c1ccc(NS(=O)(=O)c2cccc([N+](=O)[O-])c2)cc1
cell number change: -24.3% | AC50 [1]: 0.00461 µM [falling, full curve, poor fit] | AC50 [2]: 0.00731 µM [falling, full curve, poor fit]

CSCCC(NS(=O)(=O)c1ccc(C)cc1)C(=O)N1CCN(C(c2ccccc2)c2ccccc2)CC1 (stereo not drawn)
cell number change: 37.6% | AC50 [1]: 6.51 µM [rising, full curve, poor fit] | AC50 [2]: 8.2 µM [rising, partial curve]

CC(C)(C)n1nnnc1CN1CCN2CCCC2C1 (stereo not drawn)
cell number change: -66.3% | AC50 [1]: 5.8 µM [falling, full curve] | AC50 [2]: 1.64 µM [falling, partial curve]

CCC(c1nnc(SCC(=O)NNC(=O)c2ccccc2)n1Cc1ccccc1)N(C)C (stereo not drawn)
cell number change: 13.5%

COc1cc(NC(=O)c2cccs2)c(OC)cc1NC(=O)CCC(=O)Nc1ccc2ncccc2c1
cell number change: -67.2% | AC50 [1]: 29.1 µM [falling, single point]

COc1ccc(NC(=S)NC2CCCCC2)cn1
cell number change: 7.98% | AC50 [2]: 0.116 µM [falling, full curve, poor fit]

COc1ccc(NC(=O)CSc2nc3ccncc3[nH]2)c(OC)c1
AC50 [2]: 29.1 µM [rising, single point]

COC(CNC(=O)CN1CCN(Cc2ccccc2F)C1=O)OC
cell number change: 16.3% | AC50 [2]: 29.1 µM [rising, single point]

Cc1ccc(OCC(=O)Nc2cc(NC(=O)COc3ccc(C)cc3)cc(C(=O)O)c2)cc1
cell number change: -12.4%

O=C1c2ccccc2C(=O)N1CCCc1cn(C[C@H]2CC[C@@H]([C@@H]3CC[C@H](Cn4cc(CCCN5C(=O)c6ccccc6C5=O)nn4)O3)O2)nn1
cell number change: 13.6%

N#Cc1ccc(-c2ccccc2)nc1Sc1ccc(F)cc1
cell number change: 109%

Cn1c(N)c(C(=O)CSc2nn(-c3ccc(F)cc3)c(=S)s2)c(=O)n(C)c1=O
cell number change: -37.7% | AC50 [1]: 29.1 µM [falling, single point] | AC50 [2]: 29.1 µM [falling, single point]
